Assay results as given in paper PMC7819943, “Rice protein-binding microarrays: a tool to detect cis-acting elements near promoter regions in rice”.
The other results are listed elsewhere or left out.

These sequences were tested against T1, OsSMF1 (Oryza sativa, UniProt Q6ZLB0 1-436) (assay: protein-binding microarray (RPBM); PBS, 2% BSA, 51.3 ng/ul salmon testes DNA, 50 uM zinc acetate, 200 nM TF, 25 C, 1 h; high values mean tight binding). Conditions: protein: recombinant; tags: N-terminal polyhistidine and DsRed monomer fusion (pET32a); chain copies: 2; label: CyDye5-dUTP incorporated in the synthesized complementary strand; 3' TTTTT single-stranded linker to array surface; dsDNA, one strand shown.
T1 sequence: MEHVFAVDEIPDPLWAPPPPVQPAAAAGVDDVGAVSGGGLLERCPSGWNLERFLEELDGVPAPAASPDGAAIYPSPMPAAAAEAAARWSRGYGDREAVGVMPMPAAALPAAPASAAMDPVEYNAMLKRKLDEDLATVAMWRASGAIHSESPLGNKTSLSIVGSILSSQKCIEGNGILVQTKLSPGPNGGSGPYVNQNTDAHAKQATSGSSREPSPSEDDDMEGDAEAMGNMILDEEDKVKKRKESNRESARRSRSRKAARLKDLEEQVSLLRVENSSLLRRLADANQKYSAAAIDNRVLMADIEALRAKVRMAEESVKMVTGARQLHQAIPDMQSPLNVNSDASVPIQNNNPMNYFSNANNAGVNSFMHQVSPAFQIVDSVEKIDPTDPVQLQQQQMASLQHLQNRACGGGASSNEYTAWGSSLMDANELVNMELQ
Procedure, shortened: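 The binding signal is fluorescence intensity per array feature (arbitrary units). Readings came from an Axon 4000B scanner after a washed, 2% BSA-blocked, double-stranded custom Agilent array had been incubated for 1 h at 25 °C with 200 nM protein and 50 µM zinc acetate. The protein was a Ni–NTA-purified transcription factor fused N-terminally to polyhistidine and DsRed, expressed in E. coli BL21-CodonPlus.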
“ACGCCGTGATTTGAGGTTGATCTTGATGAGTGCTACTCTACGGAGTCACCTAGTGCAG” was tested, and the binding signal was 4110 fluorescence intensity (a.u.).
In the case of “TGTTAAGAAAATAGATTATATCTTTGTCATCCAAATTTCCCGGAGTCACCTAGTGCAG”, the binding signal is reported as 4050 fluorescence intensity (a.u.).
In the case of “GTAGTGGGTTTCTAGCATGACGAATTGGACCGTAGTGGTACGGAGTCACCTAGTGCAG”, the binding signal is reported as 3700 fluorescence intensity (a.u.).
In the case of “TTTGCAACTTAATCCCTTGGACTAAACAGGCGAAAGGATGCGGAGTCACCTAGTGCAG”, the binding signal is reported as 13400 fluorescence intensity (a.u.).
For “AAGATGGGGAAGGGGATAGGCGGCTGGCGTGCGATGGCGGCGGAGTCACCTAGTGCAG”, the binding signal was 3270 fluorescence intensity (a.u.).
For “GAAACGCCAGGTGGGCCCCACCTGCATCACTGACAGCCTGCGGAGTCACCTAGTGCAG”, the binding signal was 3900 fluorescence intensity (a.u.).
“CGCGCAAGCTATAGCTGACTCGCTCCTAGCTACTCCACATCGGAGTCACCTAGTGCAG” was tested, and the binding signal was 3480 fluorescence intensity (a.u.).
In the case of “CGGAGAGGGAGAAGGAGAGGAGAGGGGCTGATAGGTGGGGCGGAGTCACCTAGTGCAG”, the binding signal is reported as 3520 fluorescence intensity (a.u.).
With “GAAGCGGCTCGCGCGGCCGCCACATCTTCCGATCCTCTCGCGGAGTCACCTAGTGCAG” the binding signal was 4000 fluorescence intensity (a.u.).
For “TAGTTTTGTCCGACGTGACAATCTAAGTCAGTGTGGACCCCGGAGTCACCTAGTGCAG”, the binding signal was 4380 fluorescence intensity (a.u.).
With “CAATCCACATCTTGATTTGTGCTGCGTGTTTCCCGTCTGTCGGAGTCACCTAGTGCAG” the binding signal was 3210 fluorescence intensity (a.u.).
For “GTCATCCTCGGACGGCCGATGTGGGCCCCACACGTCAGCACGGAGTCACCTAGTGCAG”, the binding signal was 23600 fluorescence intensity (a.u.).
“AGCTAGCTAGTGACGTGCGAACTGAAACGAGGGAGGCGAGCGGAGTCACCTAGTGCAG” was tested, and the binding signal was 9700 fluorescence intensity (a.u.).
For “AGCGGAATCTGGCTCCTCGAACTTAAGCTGAGCCACAGAACGGAGTCACCTAGTGCAG”, the binding signal was 25600 fluorescence intensity (a.u.).
For “CCGGATCGAATTGCCACGTAAGCGTCACGTCACTGCCACACGGAGTCACCTAGTGCAG”, the binding signal was 17100 fluorescence intensity (a.u.).
With “ATGCAGGTCCCGTGTAGTATTATCTTATGCGGATTGCTTGCGGAGTCACCTAGTGCAG” the binding signal was 3410 fluorescence intensity (a.u.).
With “CGTTTGCTTAGTTACGTATCACTGCTATCTTTGTCCCATACGGAGTCACCTAGTGCAG” the binding signal was 4520 fluorescence intensity (a.u.).
For “GCGCCATTGCCACGAATACGCGGCCCATAGAGAATTTGGCCGGAGTCACCTAGTGCAG”, the binding signal was 3280 fluorescence intensity (a.u.).
With “ATGCTGAATTGGGTTGGGCTGGGGAGGAATTATAGACTATCGGAGTCACCTAGTGCAG” the binding signal was 4260 fluorescence intensity (a.u.).
For “TCTCGGTGACGGCGGCCTCGTCCCACTCCCGCCCGGGGATCGGAGTCACCTAGTGCAG”, the binding signal was 3260 fluorescence intensity (a.u.).
For “CTTTCCATGCGGACACGCCACGATGGCACGCCACGTAGGCCGGAGTCACCTAGTGCAG”, the binding signal was 22100 fluorescence intensity (a.u.).
With “ATGAATTTGGAGATAAGATTTTACACGTATGTATAATACTCGGAGTCACCTAGTGCAG” the binding signal was 5680 fluorescence intensity (a.u.).
With “AGAGCCCACCAGCTGCACCGGCGTGGCATCGTCCACTTGGCGGAGTCACCTAGTGCAG” the binding signal was 5060 fluorescence intensity (a.u.).
For “ACCAAACACCGCAAAATAAACAGTCATCCTCCGCACCGCGCGGAGTCACCTAGTGCAG”, the binding signal was 4480 fluorescence intensity (a.u.).
“ATCCACCACCTCCTCCTCCCGTCTCCGGCGACCGCCGCCGCGGAGTCACCTAGTGCAG” was tested, and the binding signal was 3170 fluorescence intensity (a.u.).
“ATCTTGCCGAAGTTGTTGGTGACGAAGTCGAGGCTGCCGACGGAGTCACCTAGTGCAG” was tested, and the binding signal was 3180 fluorescence intensity (a.u.).
With “GATGGATTAAAATAGCTTCCCGAGTAGATAGATAGATTGACGGAGTCACCTAGTGCAG” the binding signal was 32900 fluorescence intensity (a.u.).
With “GGATATTGGCCGCCGGCGGCGGCGGCGGCGAAGAAATTCGCGGAGTCACCTAGTGCAG” the binding signal was 24600 fluorescence intensity (a.u.).
“CTTTCCCTATCTTTCTCCTCATCATATGTGTCATGATGCACGGAGTCACCTAGTGCAG” was tested, and the binding signal was 9020 fluorescence intensity (a.u.).
“AACATCCACTGTCATGTTCTCTAATTCTATTGGATGCATGCGGAGTCACCTAGTGCAG” was tested, and the binding signal was 3490 fluorescence intensity (a.u.).
For “ACCGTACCATTATTGTTGCTACAGGTGTCAGTCGACACAACGGAGTCACCTAGTGCAG”, the binding signal was 4850 fluorescence intensity (a.u.).
With “AGGATGGAGAGTATTGTTGCCGCGTGTTCTTCCAGGCACCCGGAGTCACCTAGTGCAG” the binding signal was 3640 fluorescence intensity (a.u.).
For “CCGTGGAGGCAGCCGGAGGGATCGCTGGCAGGTCAAATGGCGGAGTCACCTAGTGCAG”, the binding signal was 29200 fluorescence intensity (a.u.).
In the case of “TTGATTTGTTACGTGTATATAATGGTTTGTTAAATTTGAACGGAGTCACCTAGTGCAG”, the binding signal is reported as 3340 fluorescence intensity (a.u.).
With “GCACAACATTGCTCTCCTCCTGTGTCAAACGTGTCAGTCCCGGAGTCACCTAGTGCAG” the binding signal was 4880 fluorescence intensity (a.u.).
“AGTCCCTGCTTATGTTTGAAGATATGACGAAGCAAGGCGTCGGAGTCACCTAGTGCAG” was tested, and the binding signal was 3840 fluorescence intensity (a.u.).
In the case of “ATATATGCACACAGGTTCTCGCGTGTACACCGTGTACACCCGGAGTCACCTAGTGCAG”, the binding signal is reported as 8530 fluorescence intensity (a.u.).
For “CCAAGAGAGAGGAGGAGGAGGAGGAGGAGTCGTGGGTCAGCGGAGTCACCTAGTGCAG”, the binding signal was 3610 fluorescence intensity (a.u.).
For “TGTTCATGCTTAGAAGATGGCATTGCCACGTCCCAAGGGCCGGAGTCACCTAGTGCAG”, the binding signal was 6180 fluorescence intensity (a.u.).
For “GGCGAGAGGGAGGAGACGCCACGTGGGCGGAGACAGTGGACGGAGTCACCTAGTGCAG”, the binding signal was 10400 fluorescence intensity (a.u.).
For “TTATCCTGTCATCTCTTCCAGTCCACGCAAGCACGCCACTCGGAGTCACCTAGTGCAG”, the binding signal was 8230 fluorescence intensity (a.u.).
“AGAACACCATACACGTCCGGCTTCTCATGCGTCCACCGCTCGGAGTCACCTAGTGCAG” was tested, and the binding signal was 3380 fluorescence intensity (a.u.).
